Laboratory results published in PubChem BioAssay AID504467 (National Center for Advancing Translational Sciences (NCATS), 2011).
Out of some 330,000 compounds screened, about 7,700 (2.3%) were called active. Inconclusive means that the source gave no clear call. Such entries were picked first, then a sample of the others. The call rests on the fitted dose curve; in most records, active means well fitted inhibition curve with a large enough effect; inconclusive means small, poorly fitted or top-dose-only effect, or effect the other way; inactive means flat fitted curve, though single readings scatter. Where the call is inconclusive, the potency comes from a doubtful curve fit.

test: qHTS screen for small molecules that inhibit ELG1-dependent DNA repair in human embryonic kidney (HEK293T) cells expressing luciferase-tagged ELG1; settings: HEK293T ELG1-luciferase reporter, luminescence, 16 h, DNA damage induced by 5-fluorouridine; activity change, negative = inhibition: at 46.1 µM (top of the series); further: nearly all actives have a fitted effect of over 55% in size
Summary of the method: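 DMSO vehicle served as the neutral condition. Each well held 2,000 cells given 5-fluorouridine plus compound; after 16 hr at 37 °C/5% CO2, ONE-Glo was added and luciferase measured 30 min later.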
On the % scale 0 is the no-effect control and ±100 the full control effect; potency means the concentration at half of the fitted maximal effect.

**Q.** For `Fc1cccc(Cc2noc(CN3CCCCC3c3ccccn3)n2)c1` (stereo not drawn), which Potency is on record?
**A.** inconclusive: 18.3 µM [activator, partial curve]

**Q.** For `O=C(Nc1ccc(C(=O)O)cc1)/C(=C\c1ccc([N+](=O)[O-])cc1)NC(=O)c1ccc(Br)cc1`, which “activity change, negative = inhibition” value is on record?
**A.** inactive: -6.09%

**Q.** Which Potency does the source give for `COc1ccccc1/C=C/C(=O)c1c2c(c(C)[nH]c1=O)CCCC2` here?
**A.** active: 18.4 µM

**Q.** For `NC(=O)CSc1nnc(NC(=O)c2ccc3ccccc3c2)s1`, which Potency is on record?
**A.** inconclusive: 10.3 µM [activator, partial curve]

**Q.** For `CC(=O)Nc1ccc(-c2cc(NC(C)=O)n(-c3ccccc3)n2)cc1`, which “activity change, negative = inhibition” value is on record?
**A.** inactive: 13%

**Q.** Which “activity change, negative = inhibition” value does the source give for `CC(=O)c1cc(C(c2csc(C(C)=O)c2)c2csc(C(C)=O)c2)cs1` here?
**A.** inactive: -8.34%

**Q.** For `COc1ccc(C(=O)NNC(=O)c2ccc(C)cc2)cc1S(=O)(=O)N1CCCC1`, which “activity change, negative = inhibition” value is on record?
**A.** inactive: 7.44%

**Q.** Which Potency does the source give for `Cc1cc(C)c2c(N)c(C(=O)Nc3ccc(F)cc3)sc2n1` here?
**A.** inconclusive: 1.64 µM [activator, full curve]

**Q.** For `COc1ccc(NC(=O)Nc2nnc(-c3cccs3)s2)cc1`, which Potency is on record?
**A.** inconclusive: 6.51 µM [activator, partial curve]

**Q.** Which Potency does the source give for `COc1ccc(C(=O)NN(C)c2nc(C(F)(F)F)nc3ccccc23)cc1` here?
**A.** inconclusive: 32.6 µM [inhibitor, single point]

**Q.** Which Potency does the source give for `Cc1nn(Cc2n[nH]c(=S)n2Cc2ccccc2)c(C)c1Cl` here?
**A.** inconclusive: 29.1 µM [inhibitor, single point]

**Q.** With `CN(C(=O)CCn1c(=S)oc2ccccc21)C1CCCCC1` as the compound, how does the Potency read?
**A.** inconclusive: 16.4 µM [inhibitor, single point]

**Q.** For `O=C(O)c1ccc(NC(=S)NC(=O)c2ccc(-c3ccc(Br)cc3)o2)cc1`, which “activity change, negative = inhibition” value is on record?
**A.** inactive: 13.2%

**Q.** Which “activity change, negative = inhibition” value does the source give for `COc1cccc(NC(=O)CN2CCN(C(=O)c3ccco3)CC2)c1` here?
**A.** inactive: -3.68%

**Q.** For `COc1ccc(CNC(=O)COC(=O)c2ccc(F)c(S(=O)(=O)N3CCOCC3)c2)cc1`, which Potency is on record?
**A.** inconclusive: 23.1 µM [inhibitor, single point]

**Q.** For `O=C(c1ccc(F)cc1)N(Cc1cccs1)C1CCS(=O)(=O)C1` (stereo not drawn), which Potency is on record?
**A.** inconclusive: 18.3 µM [activator, single point]

**Q.** With `Cc1cc([N+](=O)[O-])ccc1NC(=O)COc1nsnc1N1CCOCC1` as the compound, how does the Potency read?
**A.** inconclusive: 29.1 µM [inhibitor, single point]

**Q.** Which “activity change, negative = inhibition” value does the source give for `CCN(CC)CCN(C(=O)c1ccc(C(=O)c2ccccc2)cc1)c1nc2ccc(OC)cc2s1` here?
**A.** inactive: -2.12%

**Q.** With `O=C(O)c1cn(-c2ccccc2)nc1-c1ccc(F)cc1` as the compound, how does the “activity change, negative = inhibition” value read?
**A.** inactive: 0.627%

**Q.** For `COc1ccccc1CNC(=O)c1ccccc1OC`, which “activity change, negative = inhibition” value is on record?
**A.** inactive: 13%

**Q.** With `COC(=O)c1c(NC(=O)COC(=O)c2ccc(C)s2)sc2c1CCCCC2` as the compound, how does the Potency read?
**A.** inconclusive: 29.1 µM [activator, partial curve, poor fit]

**Q.** For `CCN1C(=O)C(CC(=O)Nc2ccc(F)cc2)N(Cc2ccc3c(c2)OCO3)C1=S` (stereo not drawn), which Potency is on record?
**A.** inconclusive: 23.1 µM [inhibitor, single point]

**Q.** Which “activity change, negative = inhibition” value does the source give for `CC[C@]12c3[nH]c4ccc(OC)cc4c3CCN1C(=O)C(CC(=O)NCCCOC)C[C@@H]2C(=O)N1CCN(C(=O)c2ccco2)CC1` (stereo partly drawn) here?
**A.** inactive: 13.1%

**Q.** With `CCOc1ccc(CN2CCN(Cc3[nH]c4ccc(OC)cc4c3C)CC2CCO)cc1` (stereo not drawn) as the compound, how does the Potency read?
**A.** inconclusive: 18.3 µM [inhibitor, partial curve, poor fit]

**Q.** For `O=C(c1ccc(Cn2cc(Cl)cn2)o1)N1CCN(Cc2ccc3c(c2)OCO3)CC1`, which Potency is on record?
**A.** inconclusive: 18.4 µM [inhibitor, partial curve, poor fit]

**Q.** With `Cc1ccc(C(=O)Nc2nnn(C)n2)cc1` as the compound, how does the Potency read?
**A.** inconclusive: 16.4 µM [activator, partial curve]

**Q.** With `O=c1sc(Nc2ccccc2)nc2ccsc12` as the compound, how does the Potency read?
**A.** inconclusive: 23.1 µM [activator, partial curve]

**Q.** With `O=C(CCNc1ccc(F)cc1)c1cc2ccccc2o1` as the compound, how does the “activity change, negative = inhibition” value read?
**A.** inactive: 0%

**Q.** For `CN(C)c1ncnc2c1ncn2C1OC(CO)C(O)C1O` (stereo not drawn), which Potency is on record?
**A.** inconclusive: 13 µM [inhibitor, single point]

**Q.** Which Potency does the source give for `O=C1c2ccc(Cl)cc2S(=O)(=O)c2cccc(C(=O)N3CCN(c4ncc(Br)cn4)CC3)c21` here?
**A.** inconclusive: 23.1 µM [inhibitor, partial curve, poor fit]

**Q.** For `COc1ccc(-c2nc3ccccc3o2)cc1OC`, which Potency is on record?
**A.** inconclusive: 0.517 µM [activator, full curve, poor fit]

**Q.** With `COc1ccc(-n2cnc3cc(NCc4cccs4)ccc32)cc1` as the compound, how does the Potency read?
**A.** inconclusive: 23.1 µM [activator, partial curve]

**Q.** For `CCN(CC)C(=S)NC(=O)c1ccc(Cl)cc1Cl`, which “activity change, negative = inhibition” value is on record?
**A.** inactive: -3.83%

**Q.** For `CCOc1ccc(CNC(=O)c2ccc(Sc3ccc(C)cc3)c(NC(C)=O)c2)cc1`, which Potency is on record?
**A.** inconclusive: 23.1 µM [inhibitor, partial curve, poor fit]

**Q.** With `Cc1ccc(C(=O)NCCN2CCNC2=O)cc1` as the compound, how does the Potency read?
**A.** inconclusive: 29.1 µM [activator, single point]

**Q.** With `NC(=O)c1sc2nc3c(c(-c4cccnc4)c2c1N)CCC3` as the compound, how does the Potency read?
**A.** inconclusive: 23.1 µM [inhibitor, partial curve]

**Q.** Which Potency does the source give for `COc1ccc(OC)c(NC(=S)N2c3ccccc3CC2C)c1` (stereo not drawn) here?
**A.** active: 18.3 µM

**Q.** Which Potency does the source give for `CSc1nc2nc3c(cc2c(=O)n1-c1ccccc1C)CCCC3` here?
**A.** inconclusive: 25.9 µM [inhibitor, partial curve, poor fit]

**Q.** For `O=C(CCNS(=O)(=O)c1ccccc1)N1CCCCCCC1`, which Potency is on record?
**A.** inconclusive: 9.2 µM [activator, single point]

**Q.** With `O=C(NCCCO)NC12CC3CC(CC(C3)C1)C2` as the compound, how does the Potency read?
**A.** inconclusive: 29.1 µM [activator, single point]

**Q.** Which Potency does the source give for `CCOC(=O)C1CCCN(C(=O)CC(C)c2ccccc2)C1` (stereo not drawn) here?
**A.** inconclusive: 0.146 µM [activator, full curve, poor fit]

**Q.** With `Cc1nc2ccccc2n1C1CCN(CC(=O)NCc2ccc(F)cc2)CC1` as the compound, how does the Potency read?
**A.** inconclusive: 29.1 µM [inhibitor, single point]

**Q.** For `CCOC(=O)c1sc(NC(=O)C(CC)OC(=O)C(CC(C)C)NC(=O)c2ccccc2)nc1C` (stereo not drawn), which Potency is on record?
**A.** inconclusive: 4.11 µM [inhibitor, partial curve, poor fit]

**Q.** Which Potency does the source give for `O=[N+]([O-])c1ccccc1-c1ccc(C(=S)N2CCCC2)o1` here?
**A.** inconclusive: 16.4 µM [activator, partial curve]

**Q.** Which “activity change, negative = inhibition” value does the source give for `Cc1ccc(S(=O)(=O)N2CCN(S(=O)(=O)N3CCCCC3)CC2)cc1` here?
**A.** inactive: 5.42%

**Q.** With `Cc1ccc(NC(=O)Nc2ccc(F)cc2)nc1` as the compound, how does the Potency read?
**A.** inconclusive: 4.11 µM [activator, partial curve]

**Q.** With `CCOc1cc(C2Nc3ccccc3C(=O)N2c2ccccc2)c(Br)cc1OCC(=O)O` (stereo not drawn) as the compound, how does the “activity change, negative = inhibition” value read?
**A.** inactive: 9.73%

**Q.** For `CCN(CC(=O)Nc1c(F)cccc1F)C(=O)C1CC(=O)N(CCc2ccc(OC)c(OC)c2)C1` (stereo not drawn), which Potency is on record?
**A.** inconclusive: 29.1 µM [activator, single point]

**Q.** With `CC1CCN(S(=O)(=O)c2ccc3c(c2)n(C)c(=O)n3C)CC1` as the compound, how does the Potency read?
**A.** inconclusive: 29.1 µM [activator, single point]

**Q.** Which Potency does the source give for `O=C(N/N=C/c1ccc([N+](=O)[O-])o1)c1sc2ccccc2c1Cl` here?
**A.** inconclusive: 14.6 µM [inhibitor, partial curve, poor fit]

**Q.** With `COc1ccc(NC(=O)C2CCN(C(=O)[C@@H]3Cc4ccccc4CN3)CC2)cc1` as the compound, how does the Potency read?
**A.** inconclusive: 16.4 µM [activator, single point]

**Q.** For `CC[C@]12c3[nH]c4cc(CCC(=O)N(C)C)ccc4c3CCN1C(=O)[C@@H](CC(=O)NCc1ccco1)C[C@@H]2C(=O)N1CCN(C(=O)C2CC2)CC1`, which “activity change, negative = inhibition” value is on record?
**A.** inactive: 2.26%

**Q.** Which Potency does the source give for `CCN(CC)S(=O)(=O)c1cc([N+](=O)[O-])ccc1NNC(=O)Nc1ccc(F)cc1` here?
**A.** inconclusive: 18.4 µM [inhibitor, single point]

**Q.** With `Cn1cnnc1SC1CCCCC1NS(=O)(=O)c1ccccc1` (stereo not drawn) as the compound, how does the “activity change, negative = inhibition” value read?
**A.** inactive: -2.45%

**Q.** With `O=C(NCc1ccc(Cl)cc1)c1noc2c1CCCCC2` as the compound, how does the “activity change, negative = inhibition” value read?
**A.** inactive: 25.4%

**Q.** For `Cc1csc(C(C#N)C(=O)c2ccc(S(=O)(=O)N3CCCC3)cc2)n1` (stereo not drawn), which “activity change, negative = inhibition” value is on record?
**A.** inactive: 0.775%

**Q.** For `N/C(=N\OC(=O)CCc1ccccc1)c1ccc(Cl)cc1`, which Potency is on record?
**A.** inconclusive: 25.9 µM [activator, single point]

**Q.** For `COc1ccc(CCNC(=O)CSc2nc3[nH]c(=O)cc(O)c3s2)cc1`, which Potency is on record?
**A.** inconclusive: 25.9 µM [activator, partial curve, poor fit]

**Q.** With `Cc1cc2c(=O)n(CC(=O)NCC(=O)Nc3ccc(C(C)C)cc3)cnc2s1` as the compound, how does the Potency read?
**A.** inconclusive: 5.17 µM [inhibitor, single point]

**Q.** For `COc1ccc(CCn2c(C)cc(C(=O)COC(=O)c3cnc(C)cn3)c2C)cc1`, which Potency is on record?
**A.** inconclusive: 0.291 µM [activator, partial curve, poor fit]

**Q.** Which Potency does the source give for `C/C(=N\NC(=S)Nc1c(C)cccc1C)c1ccc(O)cc1` here?
**A.** inconclusive: 25.9 µM [activator, single point]

**Q.** For `O=[N+]([O-])c1cccn2cc(-c3ccc(Br)cc3)nc12`, which Potency is on record?
**A.** inconclusive: 9.2 µM [activator, partial curve]

**Q.** Which Potency does the source give for `Cc1ccc(-c2nn(Cc3ccccc3)cc2C(=O)N2CCN(c3ccccn3)CC2)cc1` here?
**A.** inconclusive: 35.5 µM [inhibitor, single point]

**Q.** With `CN(CC(=O)Nc1ccccc1Cl)CC(=O)N(C)c1c(N)n(Cc2ccccc2)c(=O)[nH]c1=O` as the compound, how does the “activity change, negative = inhibition” value read?
**A.** inactive: 8.03%

**Q.** For `CCn1cc(C(=O)Nc2ccc(F)c(F)c2)cn1`, which Potency is on record?
**A.** inconclusive: 23.1 µM [activator, single point]

**Q.** With `CCOc1cc(CN2CCCC(N3CCN(c4ccc(F)cc4)CC3)C2)ccc1OC` (stereo not drawn) as the compound, how does the “activity change, negative = inhibition” value read?
**A.** inactive: 0%

**Q.** Which Potency does the source give for `N#Cc1ccc(C23CC4(C2)[C@H](CN(Cc2cccnc2)[C@@H]4c2ccccc2)C3c2ccccc2)cc1` (stereo partly drawn) here?
**A.** inconclusive: 5.17 µM [activator, single point]

**Q.** Which Potency does the source give for `CN(C)c1ccc(S(=O)(=O)N2CCCCC2)cc1NC(=O)C1CSC2(C)CCC(=O)N12` (stereo not drawn) here?
**A.** inconclusive: 20.6 µM [inhibitor, partial curve]
